Measured values from paper doi:10.1101/2020.06.29.177584.
Like-named read-outs stand apart in the source and are kept apart here. No constants are given. Whether binding was seen depends on the method and setting. Binding seen in cells or lysates may run through a third protein. Some binding calls cover weakened binding; strength is not graded here. For some of these results: Tags and fused reporters may be left off the sequences shown.

Chains of the proteins cited; added tags and fusions are not shown. Residues count along the entry.
MBP-TET1 1-321 (Q3URK3, residues 1-321): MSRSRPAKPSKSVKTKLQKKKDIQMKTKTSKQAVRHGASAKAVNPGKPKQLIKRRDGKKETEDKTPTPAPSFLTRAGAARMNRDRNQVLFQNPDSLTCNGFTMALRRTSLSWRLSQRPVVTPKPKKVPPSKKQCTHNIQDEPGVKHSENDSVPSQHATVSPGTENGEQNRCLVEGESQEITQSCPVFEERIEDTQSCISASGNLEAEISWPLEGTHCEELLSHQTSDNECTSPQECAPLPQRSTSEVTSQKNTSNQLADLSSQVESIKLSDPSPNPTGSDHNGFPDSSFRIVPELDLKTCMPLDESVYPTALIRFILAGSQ
MBP-TET1 1-215 (Q3URK3, residues 1-215): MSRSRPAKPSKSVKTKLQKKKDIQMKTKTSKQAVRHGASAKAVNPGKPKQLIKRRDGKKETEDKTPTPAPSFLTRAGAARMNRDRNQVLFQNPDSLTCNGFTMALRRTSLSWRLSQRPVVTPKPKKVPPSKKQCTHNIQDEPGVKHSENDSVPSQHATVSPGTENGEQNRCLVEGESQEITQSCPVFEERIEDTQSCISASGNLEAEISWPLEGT
MBP-TET1 1-165 (Q3URK3, residues 1-165): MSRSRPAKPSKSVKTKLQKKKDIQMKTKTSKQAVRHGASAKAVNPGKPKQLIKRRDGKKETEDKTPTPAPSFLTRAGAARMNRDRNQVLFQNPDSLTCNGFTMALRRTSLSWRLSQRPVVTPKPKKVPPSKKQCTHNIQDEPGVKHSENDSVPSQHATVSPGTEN
MBP-TET1 1-120 (Q3URK3, residues 1-120): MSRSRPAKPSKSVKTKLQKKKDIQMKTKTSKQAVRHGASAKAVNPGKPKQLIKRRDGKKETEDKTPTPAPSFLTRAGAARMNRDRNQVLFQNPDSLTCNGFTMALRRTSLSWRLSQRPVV

B1: His-NANOG (protein, UniProt Q80Z64 1-305)
chain: MSVGLPGPHSLPSSEEASNSGNASSMPAVFHPENYSCLQGSATEMLCTEAASPRPSSEDLPLQGSPDSSTSPKQKLSSPEADKGPEEEENKVLARKQKMRTVFSQAQLCALKDRFQKQKYLSLQQMQELSSILNLSYKQVKTWFQNQRMKCKRWQKNQWLKTSNGLIQKGSAPVEYPSIHCSYPQGYLVNASGSLSMWGSQTWTNPTWSSQTWTNPTWNNQTWTNPTWSSQAWTAQSWNGQPWNAAPLHNFGEDFLQPYVQLQQNFSASDLEVNLEATRESHAHFSTPQALELFLNYSVTPPGEI

Legend:
Assay in all cases: pull-down
[1] = biological target: MBP-TET1 1-321 (mouse) (UniProt Q3URK3)
[2] = biological target: MBP-TET1 1-215 (mouse) (UniProt Q3URK3)
[3] = biological target: MBP-TET1 1-321 (mouse) (UniProt Q3URK3); remark: listed apart in the source
[4] = biological target: MBP-TET1 1-165 (mouse) (UniProt Q3URK3)
[5] = biological target: MBP-TET1 1-120 (mouse) (UniProt Q3URK3)

Molecule | binding [1] | binding [2] | binding [3] | binding [4] | binding [5]
His-NANOG 1-160 (from UniProt Q80Z64 1-160) (domain or fragment) | binds | – | – | – | –
His-NANOG 91-246 (from UniProt Q80Z64 91-246) (domain or fragment) | binds | – | – | – | –
His-NANOG 194-305 (from UniProt Q80Z64 194-305) (domain or fragment) | binds | – | – | – | –
B1 | – | binds | binds | binds | binds
